Taken from: PubChem BioAssay AID1259254 (NCATS, 2017)
Screen: 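Gene knock-downs that lead to re-replication, shown by excess G2 DNA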 (primary screen). Cell system: human HCT116 colorectal cancer cells. Reagents: single siRNA against human genes. Time to read-out: 3 days. Read-out: 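Imaged Hoechst DNA stain sorts each cell into a cycle phase by DNA amount; per plate, G2 fraction set to 0% for non-targeting and 100% for GMNN siRNA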. Direction: G2 robust z-score: higher = more G2 cells, more excess DNA replication. Hit rule: 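Active siRNAs have a G2 robust z of 5 or more median absolute deviations over the median, which in these data means about 38% or higher of GMNN control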.
This is one part, drawn at random, of about 59,000 reagents. In the full data, about 1,550 (2.6%) were called active. 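G2 share is only a proxy for re-replication; each gene was hit by three separate siRNAs, and active genes were retested.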 Entries without a mark were called inactive. Reagents against one gene are numbered here. Not all columns of the deposit are shown. Not stated in the record: the amount of reagent.

{"gene": "NQO2", "siRNA no.": 1, "G2 robust z-score": 1.91}
{"gene": "NQO2", "siRNA no.": 2, "G2 robust z-score": -0.971}
{"gene": "NQO2", "siRNA no.": 3, "G2 robust z-score": -0.842}
{"gene": "UBR5", "siRNA no.": 1, "G2 robust z-score": -0.405}
{"gene": "UBR5", "siRNA no.": 2, "G2 robust z-score": -0.636}
{"gene": "UBR5", "siRNA no.": 3, "G2 robust z-score": -1.32}
{"gene": "MTMR6", "siRNA no.": 1, "G2 robust z-score": "5.93 (active)"}
{"gene": "MTMR6", "siRNA no.": 2, "G2 robust z-score": 0.616}
{"gene": "MTMR6", "siRNA no.": 3, "G2 robust z-score": -0.887}
{"gene": "TMEM108", "siRNA no.": 1, "G2 robust z-score": 1.91}
{"gene": "TMEM108", "siRNA no.": 2, "G2 robust z-score": 0.87}
{"gene": "TMEM108", "siRNA no.": 3, "G2 robust z-score": 1.35}
{"gene": "IFT20", "siRNA no.": 1, "G2 robust z-score": -0.644}
{"gene": "IFT20", "siRNA no.": 2, "G2 robust z-score": 0.0993}
{"gene": "IFT20", "siRNA no.": 3, "G2 robust z-score": 0.307}
{"gene": "SERPINH1", "siRNA no.": 1, "G2 robust z-score": -0.0771}
{"gene": "SERPINH1", "siRNA no.": 2, "G2 robust z-score": 2.21}
{"gene": "SERPINH1", "siRNA no.": 3, "G2 robust z-score": -0.528}
{"gene": "COASY", "siRNA no.": 1, "G2 robust z-score": 0.0971}
{"gene": "COASY", "siRNA no.": 2, "G2 robust z-score": -0.594}
{"gene": "COASY", "siRNA no.": 3, "G2 robust z-score": -0.363}
{"gene": "PDLIM4", "siRNA no.": 1, "G2 robust z-score": -0.157}
{"gene": "PDLIM4", "siRNA no.": 2, "G2 robust z-score": -1.62}
{"gene": "PDLIM4", "siRNA no.": 3, "G2 robust z-score": -0.472}

Entries listed so far whose gene name begins with U or u:
{"gene": "UBR5", "siRNA no.": 1, "G2 robust z-score": -0.405}
{"gene": "UBR5", "siRNA no.": 2, "G2 robust z-score": -0.636}
{"gene": "UBR5", "siRNA no.": 3, "G2 robust z-score": -1.32}
